Source: PMC8777276
Results are given in words; binding and its absence hold for the method and conditions named. In cells and extracts the contact can be indirect. Some entries that bind do so weakly or less than the wild type.

Amino acid sequences for entries named in this document (tags omitted).
UniProt Q8BVE8: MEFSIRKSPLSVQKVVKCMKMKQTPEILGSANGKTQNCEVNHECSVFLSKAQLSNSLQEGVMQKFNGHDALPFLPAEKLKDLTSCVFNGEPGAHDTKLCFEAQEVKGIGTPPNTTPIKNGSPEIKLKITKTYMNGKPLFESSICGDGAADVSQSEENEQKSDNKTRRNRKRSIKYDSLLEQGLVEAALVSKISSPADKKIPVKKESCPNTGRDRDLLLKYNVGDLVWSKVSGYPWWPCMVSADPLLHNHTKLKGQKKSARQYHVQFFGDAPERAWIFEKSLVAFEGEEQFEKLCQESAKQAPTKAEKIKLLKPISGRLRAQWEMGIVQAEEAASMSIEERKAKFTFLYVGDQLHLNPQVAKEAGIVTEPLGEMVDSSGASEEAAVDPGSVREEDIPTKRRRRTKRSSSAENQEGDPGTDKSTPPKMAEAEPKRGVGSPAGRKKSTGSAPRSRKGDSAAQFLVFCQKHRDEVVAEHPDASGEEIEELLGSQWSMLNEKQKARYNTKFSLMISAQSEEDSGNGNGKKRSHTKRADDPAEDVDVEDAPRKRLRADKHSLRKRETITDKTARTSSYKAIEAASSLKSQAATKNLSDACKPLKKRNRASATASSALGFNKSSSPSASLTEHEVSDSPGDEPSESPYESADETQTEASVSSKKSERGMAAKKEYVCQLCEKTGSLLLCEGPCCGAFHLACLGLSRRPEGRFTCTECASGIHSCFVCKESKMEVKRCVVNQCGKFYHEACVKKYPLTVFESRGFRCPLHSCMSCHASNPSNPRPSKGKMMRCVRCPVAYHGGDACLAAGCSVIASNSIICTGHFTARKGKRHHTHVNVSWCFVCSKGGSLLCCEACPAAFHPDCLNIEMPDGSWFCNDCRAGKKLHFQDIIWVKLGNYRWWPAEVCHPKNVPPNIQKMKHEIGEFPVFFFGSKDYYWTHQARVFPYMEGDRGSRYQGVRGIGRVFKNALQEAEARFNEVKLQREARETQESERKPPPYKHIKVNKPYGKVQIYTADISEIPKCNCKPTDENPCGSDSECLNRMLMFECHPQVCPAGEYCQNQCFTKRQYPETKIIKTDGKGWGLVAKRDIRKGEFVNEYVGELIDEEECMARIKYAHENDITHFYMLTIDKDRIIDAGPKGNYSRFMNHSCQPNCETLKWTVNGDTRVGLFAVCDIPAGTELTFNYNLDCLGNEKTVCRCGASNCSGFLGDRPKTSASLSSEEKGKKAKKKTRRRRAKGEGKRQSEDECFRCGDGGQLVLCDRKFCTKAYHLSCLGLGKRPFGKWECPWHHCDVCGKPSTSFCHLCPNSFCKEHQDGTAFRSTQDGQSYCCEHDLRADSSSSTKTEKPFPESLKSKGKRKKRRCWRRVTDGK

Assays:
[1] = biological target: methyltransferase NSD2 (mouse (endogenous in BMDCs)) (UniProt Q8BVE8); assay: co-IP; endogenous proteins in lysate of WT mouse BMDCs; NP-40 lysis buffer, Dynabeads pre-coupled with 3 ug antibody, 1 h at room temperature; PP2Cδ^-/- DCs as control
[2] = biological target: NSD2, expressed from a plasmid (UniProt Q8BVE8); assay: co-IP; 293T cells transfected with PP2Cδ- and NSD2-expressing plasmids; NP-40 lysis buffer, Dynabeads pre-coupled with antibody
[3] = biological target: NSD2, expressed from a plasmid (UniProt Q8BVE8); assay: co-IP; intact or truncated PP2Cδ constructs expressed from plasmids, NSD2; cells not given

Row | binding [1] | binding [2] | binding [3] | Binder
1 | binds |  |  | Protein phosphatase 2C delta (PP2Cδ) (enzyme, UniProt Q9QZ67 1-598) MAGLYSLGVSVFSDQGGRKYMEDVTQIVVEPEPAAEDKPAPVPRRALGLPATPTLAGVGPSEKGPAAARDPAPDAAASLPAGRCCRRRSSVAFFAVCDGHGGREAAQFAREHLWGFIKKQKGFTSSEPAKVCAAIRKGFLACHLAMWKKLAEWPKTMTGLPSTSGTTASVVIIRGMKMYVAHVGDSGVVLGIQDDPKDDFVRAVEVTQDHKPELPKERERIEGLGGSVMNKSGVNRVVWKRPRLTHSGPVRRSTVIDQIPFLAVARALGDLWSYDFFSGKFVVSPEPDTSVHTLDPRKHKYIILGSDGLWNMVPPQDAISMCQDQEEKKYLMGEQGQSCAKMLVNRALGRWRQRMLRADNTSAIVICISPEVDNQGNFTNEDELFLNLTDSPTYNSQETCVMTSSPSSTPPIKSPEEDAWPRLSSKDHIPALVRSNAFSEKFLEVPAEIARGNIQTVVMTSKDSETLEENCPKALTLRIHDSLNNTLSVGLIPTNSTNTIMDQKNLKMSTPGQMKAQEVERTPPANFKRTLEESNSGPLMKKHRRNGLSRSSGAQASSLPTASQRRHSVKLTLRRRLRGQRKMGNPLLHQHRKTVCVC
2 |  | binds | binds | PP2Cδ, full-length (intact) construct (enzyme, UniProt Q9QZ67 1-598) MAGLYSLGVSVFSDQGGRKYMEDVTQIVVEPEPAAEDKPAPVPRRALGLPATPTLAGVGPSEKGPAAARDPAPDAAASLPAGRCCRRRSSVAFFAVCDGHGGREAAQFAREHLWGFIKKQKGFTSSEPAKVCAAIRKGFLACHLAMWKKLAEWPKTMTGLPSTSGTTASVVIIRGMKMYVAHVGDSGVVLGIQDDPKDDFVRAVEVTQDHKPELPKERERIEGLGGSVMNKSGVNRVVWKRPRLTHSGPVRRSTVIDQIPFLAVARALGDLWSYDFFSGKFVVSPEPDTSVHTLDPRKHKYIILGSDGLWNMVPPQDAISMCQDQEEKKYLMGEQGQSCAKMLVNRALGRWRQRMLRADNTSAIVICISPEVDNQGNFTNEDELFLNLTDSPTYNSQETCVMTSSPSSTPPIKSPEEDAWPRLSSKDHIPALVRSNAFSEKFLEVPAEIARGNIQTVVMTSKDSETLEENCPKALTLRIHDSLNNTLSVGLIPTNSTNTIMDQKNLKMSTPGQMKAQEVERTPPANFKRTLEESNSGPLMKKHRRNGLSRSSGAQASSLPTASQRRHSVKLTLRRRLRGQRKMGNPLLHQHRKTVCVC
3 |  |  | binds | PP2Cδ truncate lacking B domain (Δ77-361) (domain or fragment, UniProt Q9QZ67) MAGLYSLGVSVFSDQGGRKYMEDVTQIVVEPEPAAEDKPAPVPRRALGLPATPTLAGVGPSEKGPAAARDPAPDAASAIVICISPEVDNQGNFTNEDELFLNLTDSPTYNSQETCVMTSSPSSTPPIKSPEEDAWPRLSSKDHIPALVRSNAFSEKFLEVPAEIARGNIQTVVMTSKDSETLEENCPKALTLRIHDSLNNTLSVGLIPTNSTNTIMDQKNLKMSTPGQMKAQEVERTPPANFKRTLEESNSGPLMKKHRRNGLSRSSGAQASSLPTASQRRHSVKLTLRRRLRGQRKMGNPLLHQHRKTVCVC
